At least one compound was matched to its structure with a doubt left.
How the values were obtained:
[1] = tested on: A375 human melanoma cells; assay: Colony formation assay, A375 cells; type: cell-based; settings: A375 cells (high MGMT), 4-day cycle
[2] = tested on: A375 human melanoma xenograft tumors; assay: A375 xenograft tumor growth in nude mice; type: in vivo
MGMT [3] = assay: MGMT Western blot in A375 cells; type: cell-based, human; settings: TMZ 0, 10, 40, 160 μM, 72 h treatment and 72 h treatment plus 72 h without TMZ
MGMT [4] = assay: Intratumoral MGMT enzymatic activity in DAOY xenograft tumors; type: in vivo, mice; settings: 81 mg/kg TMZ for five consecutive days, vs vehicle-treated tumors
[5] = tested on: DAOY human medulloblastoma cells; assay: Colony formation assay, DAOY cells; type: cell-based; settings: DAOY cells (high MGMT), 4-day cycle, single pulse dosing (Day 1) vs continuous daily dosing (Day 1-4), total TMZ 186, 373 and 746 μg
[6] = tested on: DAOY human medulloblastoma xenograft tumors; assay: DAOY xenograft tumor growth in nude mice; type: in vivo; settings: for tumor regression: after one cycle; for tumor growth inhibition: nude mice, i.p.
MGMT [7] = assay: MGMT enzymatic activity assay in A375 cells; type: cell-based, human
LOX human melanoma cells = assay: Colony formation assay, LOX cells; type: cell-based; settings: LOX cells (low MGMT)
[8] = tested on: LOX human melanoma xenograft tumors; assay: LOX xenograft tumor growth in SCID mice; type: in vivo; settings: higher and lower dose levels (144 and 36 mg/kg total)
Description: In brief, female athymic nude mice or female SCID mice (4-6 week old) from Charles River Laboratories were maintained in a VAF-barrier facility. Animal procedures were performed in accordance with the rules set forth in the N.I.H. guide for the care and use of laboratory animals.
DAOY human medulloblastoma cells (5×10^6), U373 human glioma cells (5×10^6), LOX human melanoma cells (5×10^5), and A375 human melanoma cells (5×10^6) were inoculated subcutaneously in the right flank of the animal (LOX in SCID mice; DAOY, U373, and A375 in nude mice). To facilitate in vivo growth, Matrigel was mixed with DAOY and A375 cells (50%) before inoculation. When tumor volumes were approximately 100 mm^3, animals were randomized and grouped (n=10 LOX, DAOY, and A375; n=9 U373). Tumor volumes and body weight were measured twice weekly using Labcat™ computer application (Innovative Programming Associates, N.J.). Tumor volumes were calculated by the formula (W×L×H)×π×⅙. TMZ was administered by intraperitoneal injections with 20% HPβCD (containing 1% DMSO) as vehicle.
Mice bearing xenograft tumors of LOX human melanoma cells, a low MGMT level cell line, were treated with TMZ using two different schedules. The same total dose was administered evenly divided over the course of either: (i) 4 or (ii) 12 days. […]

## Cn1nnc2c(C(N)=O)ncn2c1=O [TMZ, 3,4-dihydro-3-methyl-4-oxoimidazo[5,1-d]-as-tetrazine-8-carboxamide]
[1]; both dosing schedules, total TMZ 0, 62, 124, 249, 497 μg
  inhibition of colony formation: Dose-dependent inhibition
[1]; single pulse dosing (Day 1) vs continuous daily dosing (Day 1-4), total TMZ 62, 124, 249, 497 μg
  inhibition of colony formation: better inhibition of colony formation than continuous daily dosing
[2]; highest dose level of dosing for 5 consecutive days (Day 1-5) vs continuous daily dosing (Day 1-15)
  efficacy (tumor volume on Day 15): significantly better efficacy than the equivalent dose levels of the continuous daily dosing schedule
[2]; two higher dose levels of intermittent dosing (Day 1, 4, 7, 10, 13) vs continuous daily dosing (Day 1-15)
  efficacy (tumor volume on Day 15): significantly better efficacy than the equivalent dose levels of the continuous daily dosing schedule
MGMT [3]
  MGMT protein level: dose-dependent reduction in MGMT protein level
MGMT [4]
  intratumoral MGMT enzymatic activity: little MGMT activity detected
[5]
  inhibition of colony formation: better inhibition of colony formation than the continuous daily dosing
[6]; 81 mg/kg/day, intermittent dosing schedule
  tumor regression: tumor regression occurred
[6]; 54 or 81 mg/kg/day, dosing for 5 consecutive days
  tumor regression: tumor regression occurred
[6]; dosing for 5 consecutive days in 15-day cycle vs continuous daily dosing (Day 1-15)
  tumor growth inhibition: better tumor growth inhibition than the continuous daily dosing schedule
[6]; intermittent dosing for 5 days (Day 1, 4, 7, 10, 13) vs continuous daily dosing (Day 1-15)
  tumor growth inhibition: better tumor growth inhibition than the continuous daily dosing schedule
MGMT [7]; 72 hours of TMZ treatment at 0, 10, 40, 160 μM
  MGMT enzymatic activity: dose-dependent reduction of MGMT
MGMT [7]; 72 hours of TMZ treatment followed by 72 hours without TMZ
  MGMT enzymatic activity: remained reduced in a dose-dependent manner
LOX human melanoma cells; 4-day cycle, single pulse dosing (Day 1) vs continuous daily dosing (Day 1-4)
  inhibition of colony formation: better inhibition of colony formation than continuous daily dosing
LOX human melanoma cells; 8-day cycle, intermittent dosing for 2 days (Day 1, Day 5) vs continuous daily dosing (Day 1-8)
  inhibition of colony formation: better inhibition of colony formation than continuous daily dosing
LOX human melanoma cells; 8-day cycle, intermittent dosing for 2 days (Day 1, Day 5) vs dosing for 2 consecutive days (Day 1-2), same total TMZ dose
  inhibition of colony formation: better inhibition of colony formation than dosing for 2 consecutive days
[8]
  efficacy, 4-day vs 12-day schedule: no statistical difference
